Data from the supplement of paper PMC8256030.
This is one part of the list. This data set is noisy: repeats of one test often differ as much as different tests do.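 HEK293T cells were given each compound shortly before transfection with a reporter in which red mCherry is followed by the SARS-CoV-2 frameshift element and then GFP in the −1 frame, so GFP appears only after frameshifting.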

Columns and labels:
[1] = test system: SARS-CoV-2 -1 PRF reporter mCherry-FSE-GFP(-1); assay: mCherry (red) intensity as percent of control; higher = higher upstream reporter expression; conditions: 10 µM; 24 h; HEK293T
[2] = test system: SARS-CoV-2 -1 PRF reporter mCherry-FSE-GFP(-1); assay: percent effect, decrease of GFP/mCherry ratio (-1 PRF reporter) relative to controls; higher = stronger frameshift inhibition; conditions: 10 µM; 24 h; HEK293T

SMILES	mCherry [1] [%]	percent effect [2] [%]
CC(=O)Nc1c(I)cc(I)c(C(=O)O)c1I [sodium acetrizoate]	70.7	-8.96
CCC(OC(N)=O)C1CCCCC1 (stereo unspecified) [procymate]	106	-2.6
CN(CCOc1ccc(CC2SC(=O)NC2=O)cc1)c1ccccn1 (stereo unspecified) [Rosiglitazone]	95.5	0.371
CN1C(=O)OC(C)(C)C1=O [trimethadione]	103	0.972
C[N+](C)([O-])CCC=C1c2ccccc2CCc2ccccc21 [amitriptylinoxide]	80.9	-2.66
COc1cc([C@@H]2c3cc4c(cc3[C@@H](O[C@@H]3O[C@@H]5CO[C@@H](c6cccs6)O[C@H]5[C@H](O)[C@H]3O)[C@H]3COC(=O)[C@H]23)OCO4)cc(OC)c1O [teniposide]	28.4	-1.72
COC(=O)Nc1nc2cc(OS(=O)(=O)c3ccc(F)cc3)ccc2[nH]1 [luxabendazole]	70.4	-13.8
O=C(O)CCCN1CCC(O[C@@H](c2ccc(Cl)cc2)c2ccccn2)CC1 [Bepreve]	120	0.384
NS(=O)(=O)c1cc2c(cc1C(F)(F)F)NCNS2(=O)=O [hydroflumethiazide]	102	-0.0678
N#Cc1cc(I)c(O)c([N+](=O)[O-])c1 [nitroxinil]	85.2	-4.01
CC(CN(C)C)CN1c2ccccc2Sc2ccccc21 (stereo unspecified) [alimemazine]	129	-4.1
OCC(O)CN1CCN(c2ccccc2)CC1 (stereo unspecified) [dropropizine]	96.1	-1.28
CCN(CC)CC(=O)OCC(=O)[C@@]1(O)CC[C@H]2[C@@H]3CCC4=CC(=O)C=C[C@]4(C)[C@H]3[C@@H](O)C[C@@]21C [prednisolamate]	60.1	-0.792

Copied from the listing (two entries):
SMILES	mCherry [1] [%]	percent effect [2] [%]
COC(=O)Nc1nc2cc(OS(=O)(=O)c3ccc(F)cc3)ccc2[nH]1 [luxabendazole]	70.4	-13.8
O=C(O)CCCN1CCC(O[C@@H](c2ccc(Cl)cc2)c2ccccn2)CC1 [Bepreve]	120	0.384
